Values of other authors as cited in patent publication US12673067B2, “Methods, agents, and devices for local neuromodulation of autonomic nerves” (Tulavi Therapeutics, Inc., priority 2016, dated 2026).
At least one compound was matched to its structure with a doubt left.

Target: T1, GPR120 (Homo sapiens, UniProt Q5NUL3)
T1 sequence (Q5NUL3 1-361): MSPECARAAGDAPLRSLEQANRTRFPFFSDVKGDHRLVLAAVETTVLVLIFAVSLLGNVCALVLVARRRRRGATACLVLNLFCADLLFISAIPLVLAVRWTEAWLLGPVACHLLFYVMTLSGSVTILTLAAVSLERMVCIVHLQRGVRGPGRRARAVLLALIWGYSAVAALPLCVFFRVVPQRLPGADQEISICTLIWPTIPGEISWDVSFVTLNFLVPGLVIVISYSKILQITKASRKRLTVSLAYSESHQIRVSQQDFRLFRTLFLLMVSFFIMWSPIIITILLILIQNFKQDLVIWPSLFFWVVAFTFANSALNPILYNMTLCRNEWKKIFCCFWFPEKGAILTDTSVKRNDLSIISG
Conditions: at 100 μM, Watson et al., unpublished

## CN(CCOc1ccc(CC2SC(=O)NC2=O)cc1)c1ccccn1 (stereo not shown) [Rosiglitazone]
  potency of GPR120 agonism: troglitazone, digitazone, and pioglitazone. Low
